Test results from PMC4053412.
These are yes or no findings as the source states them, for the method shown. In cells and extracts the contact can be indirect. Some binding calls cover weakened binding; strength is not graded here.

Protein sequences, listed by entry. Tags and fused reporters are not part of them.
UniProt Q16665: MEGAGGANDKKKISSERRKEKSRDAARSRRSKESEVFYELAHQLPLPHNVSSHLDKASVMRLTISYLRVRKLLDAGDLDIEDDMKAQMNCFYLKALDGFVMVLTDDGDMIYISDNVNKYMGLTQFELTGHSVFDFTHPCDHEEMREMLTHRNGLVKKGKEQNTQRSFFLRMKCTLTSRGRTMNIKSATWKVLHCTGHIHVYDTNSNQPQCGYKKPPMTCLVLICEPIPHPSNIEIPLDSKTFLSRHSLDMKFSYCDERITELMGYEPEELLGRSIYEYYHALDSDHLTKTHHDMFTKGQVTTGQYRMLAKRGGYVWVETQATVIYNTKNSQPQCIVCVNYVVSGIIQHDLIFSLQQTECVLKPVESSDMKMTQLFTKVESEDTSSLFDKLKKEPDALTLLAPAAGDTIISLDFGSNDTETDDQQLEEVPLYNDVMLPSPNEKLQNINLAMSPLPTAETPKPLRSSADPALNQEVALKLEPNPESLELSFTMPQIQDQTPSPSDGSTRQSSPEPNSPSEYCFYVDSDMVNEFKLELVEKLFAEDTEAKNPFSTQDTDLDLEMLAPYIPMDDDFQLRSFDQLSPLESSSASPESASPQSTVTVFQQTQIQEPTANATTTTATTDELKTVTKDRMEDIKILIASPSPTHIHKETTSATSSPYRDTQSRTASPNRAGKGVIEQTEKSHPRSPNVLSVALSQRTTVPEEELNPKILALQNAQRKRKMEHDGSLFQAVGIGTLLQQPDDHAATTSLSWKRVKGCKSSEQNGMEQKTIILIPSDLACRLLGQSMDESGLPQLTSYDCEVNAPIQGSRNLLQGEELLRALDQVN
UniProt Q9C0J9: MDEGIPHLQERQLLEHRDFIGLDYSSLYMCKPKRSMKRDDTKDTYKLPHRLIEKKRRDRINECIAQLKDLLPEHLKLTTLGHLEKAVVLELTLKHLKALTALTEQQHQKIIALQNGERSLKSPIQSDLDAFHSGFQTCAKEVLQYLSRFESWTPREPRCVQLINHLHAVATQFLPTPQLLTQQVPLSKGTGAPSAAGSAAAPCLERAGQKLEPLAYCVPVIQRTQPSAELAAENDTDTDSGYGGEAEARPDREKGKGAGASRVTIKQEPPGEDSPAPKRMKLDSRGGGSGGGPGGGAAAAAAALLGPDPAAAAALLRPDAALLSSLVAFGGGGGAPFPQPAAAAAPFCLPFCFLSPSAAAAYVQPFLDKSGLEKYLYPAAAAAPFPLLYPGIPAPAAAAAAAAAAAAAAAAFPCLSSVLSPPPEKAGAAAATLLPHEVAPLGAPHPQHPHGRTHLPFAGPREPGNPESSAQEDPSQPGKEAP

Target: hypoxia-inducible factor-1α (human (endogenous in Ishikawa)) (UniProt Q16665)
Experiment: co-IP; endogenous proteins; Ishikawa cells under hypoxia for 24 h, RIPA lysate precleared with mouse IgG and protein A+G-agarose; precipitated with mouse anti-human HIF-1α (10 µg/ml) overnight, control mouse IgG; western blotting

SHARP1 (from UniProt Q9C0J9 1-482)
binding: binds
